Test results reported in patent US7041486B1, “Enzyme having decolorizing activity and method for decolorizing dyes by using the same” (Meiji Seika Kaisha Ltd., priority 1999, dated 2006).

What follows are compounds tested on DyP (assay: Assay of dye-degrading (decolorizing) activity of purified DyP). Details: optimum pH for the degradation of each dye by DyP, 25 mM citrate buffer.
Assay type: biochemical, Geotrichum candidum Dec 1
Method: The dye-degrading spectrum of the purified DyP was examined for nine types of dyes and three model compounds. The activity of the purified DyP to degrade these dyes or model compounds was assayed by measuring the degradation rates.
As the dyes, use was made of Reactive blue 5, 19 and 114; AQ-1 and AQ-2; Reactive black 5, Reactive red 33, Reactive yellow 2, and Reactive blue 182.
The dye-degrading activity was measured as follows.
0.2 to 0.4 mM aqueous hydrogen peroxide was added to a mixture solution of 3 mL of 25 mM citrate buffer (adjusted to the optimum pH for the degradation of each of the dyes) containing each dye at a fixed […] (30 to 120 ppm) and 1 mL of 1.86 nM DyP solution, to initiate the enzyme reaction. Reaction was performed at 30° C. for a fixed period of time, to assay the reaction rate.
1 U of the dye-degrading activity was defined as the activity to decolorize 1 μmole Reactive blue 5 or AQ-2 for one minute.
In the case of `Nc1c(N=Nc2ccc(S(=O)(=O)CCOS(=O)(=O)[O-])cc2)c(S(=O)(=O)[O-])cc2cc(S(=O)(=O)[O-])c(N=Nc3ccc(S(=O)(=O)CCOS(=O)(=O)[O-])cc3)c(O)c12.[Na+].[Na+].[Na+].[Na+]` [Reactive black 5], the “Optimum pH” value is reported as 3.2.
With `Nc1c(S(=O)(=O)[O-])cc(Nc2ccc(S(=O)(=O)[O-])c(Nc3nc(Cl)nc(Nc4cccc(S(=O)(=O)[O-])c4)n3)c2)c2c1C(=O)c1ccccc1C2=O.[Na+].[Na+].[Na+]` [Reactive blue 5] the “Optimum pH” value was 3.2.
`Nc1c(S(=O)(=O)[O-])cc(Nc2cccc(S(=O)(=O)CCOS(=O)(=O)[O-])c2)c2c1C(=O)c1ccccc1C2=O.[Na+].[Na+]` [Reactive blue 19] was tested, and the “Optimum pH” value was 3.2.
Reactive blue 182 was tested, and the “Optimum pH” value was 4.0.
For `CNc1cc(S(=O)(=O)[O-])c(N)c2c1C(=O)c1ccccc1C2=O.[Na+]` [AQ-2, 1-amino-4-methylamino-2-sodium-anthraquinone sulfonate], the “Optimum pH” value was 3.0.
In the case of `COc1ccc(N=Nc2c(S(=O)(=O)[O-])cc3cc(N(C)c4nc(Cl)nc(Nc5ccc(S(=O)(=O)[O-])cc5)n4)ccc3c2O)c(S(=O)(=O)[O-])c1.[Na+].[Na+].[Na+]` [Reactive red 33], the “Optimum pH” value is reported as 3.2.
With `CC1=NN(c2cc(Cl)c(S(=O)(=O)O)cc2Cl)C(=O)C1N=Nc1cc(Nc2nc(Cl)nc(Nc3ccc(S(=O)(=O)O)cc3)n2)ccc1S(=O)(=O)O.[Na]` (stereo not drawn) [Reactive yellow 2] the “Optimum pH” value was 3.2.
Reactive blue 114 was tested, and the “Optimum pH” value was 4.0.
`Nc1cc(Nc2cc(S(=O)(=O)[O-])c(N)c3c2C(=O)c2ccccc2C3=O)ccc1S(=O)(=O)[O-].[Na+].[Na+]` [AQ-1, 1-amino-4-(3-amino-4-sodium-sulfonoanilino)-2-sodium anthraquinone sulfonate] was tested, and the “Optimum pH” value was 3.2.
